In PubChem BioAssay AID445 (National Center for Advancing Translational Sciences (NCATS), 2006):
This is one part of the list. The main result of the screen is listed elsewhere. These columns were measured beside it and carry no call. Most of these compounds were active or inconclusive in the main read-out, so they are no random draw. Potencies come from curve fits of mixed quality, noted in brackets.

Assay: IkB Signaling
Settings: ABC-DLBCL IkBa-CBG/CBR dual luciferase ratio (green luciferase fused to IkBa over red control in OCI-Ly3 lymphoma cells), 4 h
Summary of the method: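 In this assay, an IκBα–CBG68 fusion accumulates when IKK-driven degradation is blocked; native CBR normalizes for cell number. OCI-Ly3 cells were treated 4 h with compound and doxycycline, then green and red light read after Chroma-Glo addition.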

[1] = measured here: control luc red channel unless noted
[2] = measured here: IkB-luc green channel
[3] = measured here: control luc red channel

COCCCNC(=O)CN1C(=O)COc2ccc(S(=O)(=O)N3CCOCC3)cc21
AC50 [1]: 25.1 µM [falling, partial curve, poor fit]

COc1cc(C2C(C#N)=C(C)NC3=C2C(=O)c2ccccc23)cc(OC)c1OC (stereo not given)
AC50 [2]: 3.16 µM [rising, full curve, poor fit]
AC50 [3]: 0.794 µM [rising, full curve, poor fit]

COC(=O)CSCc1nc(-c2ccc(C(=O)OC)cc2)oc1C
AC50 [1]: 12.6 µM [falling, partial curve]

O=C(CCNS(=O)(=O)c1cccc2nonc12)Nc1ccc(F)cc1
AC50 [1]: 12.6 µM [falling, partial curve]

COC(=O)c1cccc(Nc2c(-c3ccc(O)cc3)nc3nc[nH]n23)c1
AC50 [2]: 31.6 µM [rising, partial curve]
AC50 [3]: 31.6 µM [rising, partial curve]

COCCn1c(=NC(=O)CSC(C)=O)sc2cc(F)ccc21
AC50 [1]: 25.1 µM [falling, single point]

CCOC(=O)c1cc(-c2ccccc2)n(-c2cccc(C(=O)NC(C)CC)c2)c1C (stereo not given)
AC50 [1]: 31.6 µM [falling, single point]

Cc1ccc(N(C)S(=O)(=O)c2ccc(-c3cnc(C4CC4)o3)cc2)cc1
AC50 [1]: 3.16 µM [rising, single point]

CCn1c(CN2CCCCC2)nc2cc(NC(=O)COc3cc(C)ccc3C(C)C)ccc21
AC50 [1]: 12.6 µM [falling, partial curve]

CC(C)Oc1ccc(CNC(=O)c2ccc3c(c2)N(Cc2ccc(F)cc2)CCS3)cc1
AC50 [1]: 20 µM [falling, partial curve]

Cc1c(-c2ccc(Cl)cc2)c(=O)oc2c(CN3CCN(C)CC3)c(O)ccc12
AC50 [1]: 6.31 µM [falling, partial curve]

O=C(O)CCCCCN=C1CCc2ccccc2N1
AC50 [1]: 31.6 µM [falling, single point]

COc1cccc2sc(N(Cc3cccnc3)C(=O)C3CCCCC3)nc12
AC50 [1]: 0.631 µM [falling, full curve]

CC1CCc2c(sc3nc(-c4cc5ccccc5oc4=O)nc(Cl)c23)C1 (stereo not given)
AC50 [1]: 5.01 µM [rising, partial curve]

O=C(CSc1nnc(-c2cnccn2)n1Cc1ccco1)c1ccc(Cl)c(Cl)c1
AC50 [1]: 7.94 µM [falling, partial curve]

O=S(=O)(c1cccc2cnccc12)N1CCCNCC1
AC50 [1]: 15.8 µM [falling, partial curve]

CC(C)c1nn2c(=O)cc(COC(=O)c3cccc(NC(=O)c4ccccc4F)c3)nc2s1
AC50 [1]: 3.98 µM [falling, partial curve]

O=C(O)CSc1ccc2ccccc2n1
AC50 [1]: 7.94 µM [falling, partial curve] [measured here: IkB-luc green channel]

O=C(Nc1cccc(Cl)c1)C(Cc1ccccc1)n1cccc1 (stereo not given)
AC50 [1]: 39.8 µM [falling, single point]

CCOC(=O)N1CCN(C(=O)Cn2nc(-c3ccc(Cl)cc3)ccc2=O)CC1
AC50 [1]: 25.1 µM [falling, partial curve]

CCOc1ccc(CCNC(=O)CCCc2nnc3n(CCCOC)c(=O)c4sccc4n23)cc1
AC50 [1]: 39.8 µM [falling, single point]

CC(=O)C1=C(C)NC(SCC(=O)c2ccccc2)=C(C#N)C1c1ccco1 (stereo not given)
AC50 [1]: 31.6 µM [falling, single point]

COc1cccc(-c2cc(C(=O)N3CCCCCC3)no2)c1
AC50 [1]: 12.6 µM [falling, partial curve]

COC(=O)c1cccc(NC(=O)c2cc3sccc3n2C)c1
AC50 [2]: 39.8 µM [falling, single point]
AC50 [3]: 25.1 µM [falling, partial curve]

Cc1ccccc1-c1nc(CS(=O)CC(=O)NCCCN(C)c2ccccc2)c(C)o1 (stereo not given)
AC50 [1]: 12.6 µM [falling, partial curve]

COc1ccc(-c2cc(C(F)(F)F)nc(S(C)(=O)=O)n2)cc1OC
AC50 [1]: 10 µM [falling, partial curve]

COc1ccc(N2C(=O)C(CC(=O)Nc3ccc(Cl)cc3)N(Cc3ccc4c(c3)OCO4)C2=O)cc1 (stereo not given)
AC50 [1]: 25.1 µM [falling, partial curve]

Cc1cccc2sc(N(Cc3cccnc3)C(=O)CCS(=O)(=O)c3ccccc3)nc12
AC50 [1]: 39.8 µM [falling, single point]

O=C(c1ccco1)N1CCN(S(=O)(=O)c2ccc(Br)s2)CC1
AC50 [1]: 39.8 µM [rising, single point] [measured here: IkB-luc green channel]

Cc1cccc(-c2nc(SCc3cc(=O)c4cccc(F)c4[nH]3)n[nH]2)c1
AC50 [1]: 31.6 µM [falling, single point]

Cc1ccc(C)c(N2CCN(C(=O)CN3CCSc4ccccc43)CC2)c1
AC50 [1]: 10 µM [falling, partial curve]

CCOc1ccc(CCNC(=O)CSc2nnnn2-c2ccccc2Cl)cc1OCC
AC50 [1]: 15.8 µM [falling, partial curve, poor fit]

CCOc1ccc(-c2nnn(CC(=O)c3ccc4c(c3)OCCO4)n2)cc1OCC
AC50 [1]: 39.8 µM [falling, single point]

COc1c(C)cc(Br)cc1C(=O)Nc1cccc(NC(=O)c2ccco2)c1
AC50 [1]: 6.31 µM [falling, partial curve]

Fc1ccc(F)c(Nc2c3c(nc4ccc(Cl)cc24)CCC3)c1
AC50 [1]: 20 µM [falling, partial curve]

CCCN(C#N)c1nc(NCC)nc(NC(C)C)n1
AC50 [1]: 7.94 µM [falling, single point]

Cc1cc(C)c(NC(=O)C2CCN(C(=O)N3CC(C)Oc4ccc(Cl)cc43)CC2)c(C)c1 (stereo not given)
AC50 [1]: 20 µM [falling, single point]

Cc1cc(C)cc(NS(=O)(=O)c2ccc(-c3cc(C)no3)s2)c1
AC50 [1]: 25.1 µM [rising, partial curve]

Cc1ccc(-c2nc3cc(Cl)ccc3o2)cc1NC(=O)c1cc2ccccc2o1
AC50 [1]: 1 µM [falling, partial curve]

Cc1c(C(=O)N(C)C)sc2c1c(=O)n(-c1ccccc1C(F)(F)F)c(=O)n2Cc1ccccc1C#N
AC50 [1]: 25.1 µM [rising, single point]

CC(C)Cc1nn2c(=O)cc(COC(=O)c3cccc(NC(=O)c4cccs4)c3)nc2s1
AC50 [1]: 0.251 µM [falling, full curve]

CC[C@@H](CO)Nc1nc(NCc2ccccc2)c2ncn(C(C)C)c2n1
AC50 [2]: 25.1 µM [falling, partial curve]
AC50 [3]: 20 µM [falling, partial curve]

Cc1ccccc1Cn1c(=O)n(CC2CCC(C(=O)N3CCC(C)CC3)CC2)c(=O)c2sccc21 (stereo not given)
AC50 [1]: 39.8 µM [falling, single point]

Cc1ccc(NCc2cccn2-c2nnc(N3CCC(C(=O)NCc4ccccc4C)CC3)s2)cc1
AC50 [1]: 7.94 µM [falling, partial curve]

COc1ccc(CN2CCCN(CC(=O)Nc3ccc(Br)cc3F)S2(=O)=O)cc1
AC50 [1]: 25.1 µM [falling, partial curve]

Cc1ccc(-n2ncc(C(=O)NCc3ccc4c(c3)OCO4)c2C2CCN(C(=O)OC(C)(C)C)CC2)cc1C
AC50 [1]: 10 µM [falling, partial curve]

CCOc1ccc(NC(=O)CC2Nc3cccc4cccc(c34)NC2=O)cc1 (stereo not given)
AC50 [1]: 39.8 µM [falling, single point]

Cc1cc(-c2ccc(S(=O)(=O)Nc3cccc(C(F)(F)F)c3)s2)on1
AC50 [1]: 20 µM [falling, partial curve]

CC(C)Sc1ncc(Cl)c(C(=O)Nc2nc3ccc(S(C)(=O)=O)cc3s2)n1
AC50 [1]: 12.6 µM [falling, partial curve]

CN(C(=O)CSc1nc2ccc(NC(=O)COc3ccc(F)cc3)cc2s1)c1ccccc1
AC50 [1]: 20 µM [falling, partial curve]

Cc1cc(C(=O)CSc2nc3ccccc3n2CCC#N)c(C)n1Cc1cccs1
AC50 [1]: 20 µM [falling, partial curve]

CCN(CC(=O)Nc1ccc2c(c1)OCO2)Cc1nc2ccccc2c(=O)[nH]1
AC50 [1]: 20 µM [falling, single point]

O=C(Nc1ccc2nc(-c3ccc(Br)o3)[nH]c2c1)c1ccco1
AC50 [1]: 12.6 µM [falling, partial curve]

CC(=O)N1CCc2c(sc(NC(=O)C3CC3)c2-c2nc3ccccc3s2)C1
AC50 [1]: 5.01 µM [falling, partial curve]

CCOc1ccc2c(c1)c(=O)c(S(=O)(=O)c1ccc(CC)cc1)cn2CC
AC50 [1]: 1 µM [falling, partial curve]

CCn1c(SCC(=O)c2ccc(C)cc2)nnc1-c1ccoc1C
AC50 [1]: 50.1 nM [rising, partial curve, poor fit] [measured here: IkB-luc green channel]

CCOc1ccccc1-c1noc(CSc2nnc(-c3ccncc3)n2-c2ccc(F)cc2)n1
AC50 [1]: 31.6 µM [falling, single point]

COc1cccc(C(=O)N2CCSC2=S)c1
AC50 [1]: 12.6 µM [falling, partial curve]

Cn1c(=O)n(Cc2ccccc2Cl)c(=O)c2c1nc1n2CCN1c1ccccc1
AC50 [1]: 12.6 µM [falling, partial curve]

Cc1c(Cl)cccc1NC(=O)CSc1nc(=O)n(Cc2ccncc2)c2c1CCC2
AC50 [1]: 39.8 µM [falling, single point]

Cc1ccc(C(=O)COC(=O)CCCC(=O)Nc2cc(C(F)(F)F)ccc2Cl)cc1C
AC50 [1]: 31.6 µM [falling, partial curve]
